These are literature values, as cited in patent US9682037B2, “Non-mucoadhesive film dosage forms” (APR APPLIED PHARMA RESEARCH S.A., priority 2006, dated 2017).

Structures can show the parent of a compound that is named as a salt. Where two headings read alike, the source gives them in different places.

As to `CN1C(=O)CN=C(c2ccccc2)c2cc(Cl)ccc21` [Diazepam], under “in vivo”, the Tmax entry is recorded as “Tmax = 30-90 minutes”.
`O=C(O)COCCN1CCN(C(c2ccccc2)c2ccc(Cl)cc2)CC1` (stereo not shown) [Cetirizine Hydrochloride]: the Cmax result (10 mg tablet once daily for ten days) is given as “Cmax = 311 ng/ml when 10 mg tablet”. In addition, the Tmax entry (fasted) is “Tmax = 1.0 hr. (fasted) hours”. In addition, the “Food decreases/lowers Cmax by” value (with food) was “by 23%”.
